No constants are given. Whether binding was seen depends on the method and setting. For part of these data: Binding seen in cells or lysates may run through a third protein. Some entries that bind do so weakly or less than the wild type. Where a sequence is shown, tags or fusion partners need not be part of it.
Legend:
[1] = molecular target: T1, C-terminally TAP-tagged Tsr1 (S. cerevisiae) (UniProt Q07381); assay: cryo-EM structure; pre-40S particles from rps20Δloop cells purified via Tsr1-TAP (lysis buffer with 5 mM MgCl2) and a 10–30% sucrose gradient; single particle analysis, classes C1-S20Δloop (3.47 Å) and C2-S20Δloop (3.79 Å); the partners stand in one ribonucleoprotein particle
T1 sequence: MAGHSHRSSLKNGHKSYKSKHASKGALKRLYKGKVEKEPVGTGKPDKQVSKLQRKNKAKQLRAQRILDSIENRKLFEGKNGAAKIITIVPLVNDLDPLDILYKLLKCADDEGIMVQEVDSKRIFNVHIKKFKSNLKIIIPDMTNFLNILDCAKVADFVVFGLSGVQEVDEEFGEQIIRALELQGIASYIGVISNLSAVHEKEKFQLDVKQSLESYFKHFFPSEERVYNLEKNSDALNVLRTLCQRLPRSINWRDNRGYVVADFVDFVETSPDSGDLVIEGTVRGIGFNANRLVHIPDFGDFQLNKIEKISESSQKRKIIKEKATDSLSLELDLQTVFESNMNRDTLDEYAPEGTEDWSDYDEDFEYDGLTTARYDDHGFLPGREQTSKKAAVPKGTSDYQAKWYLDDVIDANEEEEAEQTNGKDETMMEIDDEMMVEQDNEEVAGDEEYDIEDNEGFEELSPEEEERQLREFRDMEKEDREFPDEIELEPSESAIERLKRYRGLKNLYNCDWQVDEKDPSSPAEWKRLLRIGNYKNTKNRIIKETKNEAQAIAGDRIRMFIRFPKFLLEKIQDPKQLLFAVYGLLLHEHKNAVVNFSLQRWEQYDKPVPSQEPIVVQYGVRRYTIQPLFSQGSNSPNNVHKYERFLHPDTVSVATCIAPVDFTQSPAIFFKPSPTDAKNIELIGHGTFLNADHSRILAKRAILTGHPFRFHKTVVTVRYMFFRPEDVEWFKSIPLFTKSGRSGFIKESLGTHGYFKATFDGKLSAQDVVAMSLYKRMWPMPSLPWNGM

Sequences of proteins named here, by UniProt entry; tags and fusion partners are left off. A change or cut given only in a name is not applied to a line headed by its entry.
UniProt P40160: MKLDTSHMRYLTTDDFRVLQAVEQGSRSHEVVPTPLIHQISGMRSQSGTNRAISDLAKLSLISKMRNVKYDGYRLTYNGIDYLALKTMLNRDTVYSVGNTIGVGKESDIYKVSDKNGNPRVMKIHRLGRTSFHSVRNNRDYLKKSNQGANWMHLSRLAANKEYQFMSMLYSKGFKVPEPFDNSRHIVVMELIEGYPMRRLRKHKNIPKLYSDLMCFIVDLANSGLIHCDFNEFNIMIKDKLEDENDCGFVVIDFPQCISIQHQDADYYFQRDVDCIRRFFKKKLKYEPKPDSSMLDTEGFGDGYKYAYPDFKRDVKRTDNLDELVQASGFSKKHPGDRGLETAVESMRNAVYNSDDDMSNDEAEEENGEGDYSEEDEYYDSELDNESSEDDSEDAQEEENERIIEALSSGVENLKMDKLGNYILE

[2] = molecular target: T1, C-terminally TAP-tagged Tsr1 (S. cerevisiae); assay: co-IP; Tsr1-TAP pre-40S particles from yeast lysate bound to IgG beads, eluted with TEV protease, western blotting; wild-type, rps20Δloop, rio2.D253A and ltv1 phosphomutant strains; in the ATP assays the bound particles were incubated with or without 1 mM ATP for 30 min at 4 °C (50 mM TRIS pH 7.5, 100 mM NaCl, 5 mM MgCl2, 0.075% NP-40, 1 mM DTT) and washed before elution

binding [1] | binding [2] | Substance
binds | binds | Rio2 (endogenous) (from UniProt P40160 1-425) (enzyme)
 | binds | Rio2.D253A (from UniProt P40160 1-425) (enzyme)

From article PMC6588571
